# In PubChem BioAssay AID248 (DTP/NCI, 2004):
# The list is a part of this screen's results and no random one: it gathers some chemical classes. Other doses and runs of a compound may be missing. T/C gives the treated animals as a percentage of the vehicle group. Some entries give survivors of the animals treated and no T/C: the source holds a T/C of zero for them, seemingly a mark for toxic or unscored doses. Some survivor counts are full or nearly so, which does not show that the dose was tolerated: survival well below the control is almost never listed, so the zero probably covers shortened survival too. Counts of survivors are from the toxicity check (mostly the fifth day) where no day follows; animals may have died later. Schedule codes are those of the source, read here as Q, the interval in days (D) or hours (H), X, the number of doses. Some schedules carry Z or #; the key to these is not given. Where survival is the endpoint, the PubChem record calls one and a half times the control and up active, and a quarter to a half above the control has no call in these data; cut-offs in other NCI protocols can differ. Some entries were tested several times; the values are given in rising order. Some T/C values are marked as having no survivor count here; that says nothing about deaths at the dose.
# Tested on: L1210 leukemia ip in BDF1 mice, survival T/C
# Test: NCI In Vivo Anticancer Drug Screen. Data for tumor model L1210 Leukemia (intraperitoneal) in B6D2F1 (BDF1) mice
# Conditions: T/C endpoint: mean survival time, higher T/C = longer survival
# [1] = dose: 36.0 mg/kg/injection, schedule: Q01DX Z (oral), vehicle: saline
# [2] = dose: 38.0 mg/kg/injection, schedule: Q01DX Z (ip), vehicle: methylcellulose (MC)
smiles,measurement,setting,value
O[C@H](CNCCCl)[C@H](O)CNCCCl,T/C,"dose: 0.38 mg/kg/injection, schedule: Q01DX Z (ip), vehicle: saline",114 % of control
same,T/C,"dose: 0.75 mg/kg/injection, schedule: Q01DX Z (ip), vehicle: saline",126 % of control
same,T/C,"dose: 0.8 mg/kg/injection, schedule: Q01DX Z (ip), vehicle: carboxymethylcellulose (CMC)",122 % of control
same,T/C,"dose: 0.8 mg/kg/injection, schedule: Q01DX Z (ip), vehicle: saline",127 % of control
same,T/C,"dose: 1.2 mg/kg/injection, schedule: Q01DX Z (ip), vehicle: saline",131 % of control
same,T/C,"dose: 1.3 mg/kg/injection, schedule: Q01DX Z (ip), vehicle: methylcellulose (MC)",110 % of control
same,T/C,"dose: 1.3 mg/kg/injection, schedule: Q01DX Z (ip), vehicle: saline",146 % of control
same,T/C,"dose: 1.5 mg/kg/injection, schedule: Q01DX Z (ip), vehicle: saline",122 % of control
same,T/C,"dose: 1.6 mg/kg/injection, schedule: Q01DX Z (ip), vehicle: carboxymethylcellulose (CMC)",130 % of control
same,T/C,"dose: 1.8 mg/kg/injection, schedule: Q01DX Z (ip), vehicle: saline",133 % of control
same,T/C,"dose: 2.0 mg/kg/injection, schedule: Q01DX Z (ip), vehicle: saline",151 % of control
same,T/C,"dose: 2.66 mg/kg/injection, schedule: Q01DX Z (ip), vehicle: saline",130 % of control
same,T/C,"dose: 2.7 mg/kg/injection, schedule: Q01DX Z (ip), vehicle: methylcellulose (MC)",133 % of control
same,T/C,"dose: 2.8 mg/kg/injection, schedule: Q01DX Z (ip), vehicle: saline",167 % of control
same,T/C,"dose: 3.0 mg/kg/injection, schedule: Q01DX Z (ip), vehicle: saline","158, 160, 168 % of control"
same,T/C,"dose: 3.0 mg/kg/injection, schedule: Q01DX Z (oral), vehicle: saline",97 % of control
same,T/C,"dose: 3.3 mg/kg/injection, schedule: Q01DX Z (ip), vehicle: carboxymethylcellulose (CMC)",148 % of control
same,T/C,"dose: 4.0 mg/kg/injection, schedule: Q01DX Z (ip), vehicle: saline",180 % of control
same,T/C,"dose: 4.3 mg/kg/injection, schedule: Q01DX Z (ip), vehicle: saline",143 % of control
same,T/C,"dose: 4.5 mg/kg/injection, schedule: Q01DX Z (oral), vehicle: saline",95 % of control
same,T/C,"dose: 4.7 mg/kg/injection, schedule: Q01DX Z (oral), vehicle: saline",116 % of control
same,T/C,"dose: 5.5 mg/kg/injection, schedule: Q01DX Z (ip), vehicle: methylcellulose (MC)",149 % of control
same,T/C,"dose: 6.0 mg/kg/injection, schedule: Q01DX Z (ip), vehicle: saline",166 and 214 % of control
same,T/C,"dose: 6.5 mg/kg/injection, schedule: Q01DX Z (ip), vehicle: saline",148 % of control
same,T/C,"dose: 6.7 mg/kg/injection, schedule: Q01DX Z (oral), vehicle: saline",114 % of control
same,T/C,"dose: 7.1 mg/kg/injection, schedule: Q01DX Z (oral), vehicle: saline",122 % of control
same,T/C,"dose: 7.5 mg/kg/injection, schedule: Q01DX010 (oral), vehicle: water",156 % of control
same,T/C,"dose: 7.5 mg/kg/injection, schedule: Q01DX Z (ip), vehicle: carboxymethylcellulose (CMC)",172 % of control
same,T/C,"dose: 9.0 mg/kg/injection, schedule: Q01DX Z (ip), vehicle: saline",150 and 151 % of control
same,T/C,"dose: 10.6 mg/kg/injection, schedule: Q01DX Z (oral), vehicle: saline",146 % of control
same,T/C,"dose: 10.7 mg/kg/injection, schedule: Q01DX Z (oral), vehicle: saline",142 % of control
same,T/C,"dose: 11.0 mg/kg/injection, schedule: Q01DX Z (ip), vehicle: methylcellulose (MC)",126 and 139 % of control
same,T/C,"dose: 11.0 mg/kg/injection, schedule: Q01DX Z (ip), vehicle: saline",176 % of control
same,T/C,"dose: 12.0 mg/kg/injection, schedule: Q01DX Z (ip), vehicle: saline",275 % of control
same,T/C,"dose: 13.5 mg/kg/injection, schedule: Q01DX Z (ip), vehicle: saline",172 and 181 % of control
same,T/C,"dose: 15.0 mg/kg/injection, schedule: Q01DX010 (oral), vehicle: water",141 % of control
same,T/C,"dose: 15.0 mg/kg/injection, schedule: Q01DX Z (ip), vehicle: carboxymethylcellulose (CMC)",213 % of control
same,T/C,"dose: 16.0 mg/kg/injection, schedule: Q01DX Z (oral), vehicle: saline",166 and 170 % of control
same,T/C,"dose: 17.0 mg/kg/injection, schedule: Q01DX Z (ip), vehicle: methylcellulose (MC)",93 and 94 % of control
same,T/C,"dose: 17.0 mg/kg/injection, schedule: Q01DX Z (ip), vehicle: saline",186 % of control
same,T/C,"dose: 20.0 mg/kg/injection, schedule: Q01DX Z (ip), vehicle: saline",164 % of control
same,T/C,"dose: 24.0 mg/kg/injection, schedule: Q01DX Z (oral), vehicle: saline",126 and 185 % of control
same,T/C,"dose: 25.0 mg/kg/injection, schedule: Q01DX Z (ip), vehicle: methylcellulose (MC)",87 and 91 % of control
same,T/C,"dose: 25.0 mg/kg/injection, schedule: Q01DX Z (ip), vehicle: saline",113 and 150 % of control
same,T/C,"dose: 30.0 mg/kg/injection, schedule: Q01DX010 (oral), vehicle: water",102 % of control
same,T/C,"dose: 30.0 mg/kg/injection, schedule: Q01DX Z (ip), vehicle: saline",125 % of control
same,T/C,[1],116 % of control
same,survivor count,[1],6 of 6
same,T/C,[2],98 % of control
same,survivor count,[2],5 of 6
same,survivor count,"dose: 38.0 mg/kg/injection, schedule: Q01DX Z (ip), vehicle: saline",6 of 6
same,T/C,"dose: 45.0 mg/kg/injection, schedule: Q01DX Z (ip), vehicle: saline",95 % of control
same,T/C,"dose: 50.0 mg/kg/injection, schedule: Q01DX001 (ip), vehicle: saline",174 % of control
same,survivor count,"dose: 50.0 mg/kg/injection, schedule: Q01DX Z (ip), vehicle: methylcellulose (MC)",5 of 6
same,survivor count,"dose: 50.0 mg/kg/injection, schedule: Q01DX Z (ip), vehicle: saline",6 of 6
same,survivor count,"dose: 60.0 mg/kg/injection, schedule: Q01DX010 (oral), vehicle: water",6 of 6
same,T/C,"dose: 100.0 mg/kg/injection, schedule: Q01DX001 (ip), vehicle: saline",115 % of control
same,survivor count,"dose: 120.0 mg/kg/injection, schedule: Q01DX010 (oral), vehicle: water",5 of 6
same,survivor count,"dose: 200.0 mg/kg/injection, schedule: Q01DX001 (ip), vehicle: saline",2 of 4
same,survivor count,"dose: 240.0 mg/kg/injection, schedule: Q01DX010 (oral), vehicle: water",0 of 6
same,survivor count,"dose: 400.0 mg/kg/injection, schedule: Q01DX001 (ip), vehicle: saline",0 of 4
same,survivor count,"dose: 480.0 mg/kg/injection, schedule: Q01DX010 (oral), vehicle: water",0 of 6
O=C(O)C1(O)c2ccccc2-c2ccccc21,T/C,"dose: 100.0 mg/kg/injection, schedule: Q04DX003 (ip), vehicle: saline with Tween-80",97 % of control [survivor count not shown]
same,T/C,"dose: 200.0 mg/kg/injection, schedule: Q04DX003 (ip), vehicle: saline with Tween-80",91 % of control [survivor count not shown]
same,T/C,"dose: 400.0 mg/kg/injection, schedule: Q04DX003 (ip), vehicle: saline with Tween-80",102 % of control [survivor count not shown]
NC1=NP(=O)(Oc2ccccc2)N=C(Nc2ccccc2)N1 (centres undefined),T/C,"dose: 100.0 mg/kg/injection, schedule: Q04DX003 (ip), vehicle: Klucel (hydroxypropylcellulose) (HPC)",95 % of control
same,T/C,"dose: 200.0 mg/kg/injection, schedule: Q04DX003 (ip), vehicle: Klucel (hydroxypropylcellulose) (HPC)",100 % of control
same,T/C,"dose: 400.0 mg/kg/injection, schedule: Q04DX003 (ip), vehicle: Klucel (hydroxypropylcellulose) (HPC)",95 % of control
C[CH2][Pb]([C]#N)([CH2]C)[CH2]C,T/C,"dose: 12.5 mg/kg/injection, schedule: Q04DX002 (ip), vehicle: saline with Tween-80",97 % of control
same,T/C,"dose: 25.0 mg/kg/injection, schedule: Q04DX002 (ip), vehicle: saline with Tween-80",93 % of control
same,T/C,"dose: 50.0 mg/kg/injection, schedule: Q04DX002 (ip), vehicle: saline with Tween-80",101 % of control
same,survivor count,"dose: 100.0 mg/kg/injection, schedule: Q04DX002 (ip), vehicle: saline with Tween-80",0 of 3
same,survivor count,"dose: 200.0 mg/kg/injection, schedule: Q04DX002 (ip), vehicle: saline with Tween-80",0 of 3
same,survivor count,"dose: 400.0 mg/kg/injection, schedule: Q04DX002 (ip), vehicle: saline with Tween-80",0 of 3
